Where a chain is given by its changes, count along the chain named. No constants are given. Whether binding was seen depends on the method and setting. Some entries that bind do so weakly or less than the wild type. For some of these results: Tags and fused reporters may be left off the sequences shown.
Assays:
[1] = target: CENP-A-GFP-LacI (Drosophila melanogaster) (UniProt Q9V6Q2); assay: LacO/LacI tethering assay in cells
[2] = target: CAL1_(841-979) (untagged) (Drosophila melanogaster) (UniProt Q9VEN2); assay: AUC
[3] = target: T1, GFP-LacI-CENP-C (Drosophila melanogaster) (UniProt Q9VHP9); assay: LacO/LacI tethering assay in cells
T1 sequence: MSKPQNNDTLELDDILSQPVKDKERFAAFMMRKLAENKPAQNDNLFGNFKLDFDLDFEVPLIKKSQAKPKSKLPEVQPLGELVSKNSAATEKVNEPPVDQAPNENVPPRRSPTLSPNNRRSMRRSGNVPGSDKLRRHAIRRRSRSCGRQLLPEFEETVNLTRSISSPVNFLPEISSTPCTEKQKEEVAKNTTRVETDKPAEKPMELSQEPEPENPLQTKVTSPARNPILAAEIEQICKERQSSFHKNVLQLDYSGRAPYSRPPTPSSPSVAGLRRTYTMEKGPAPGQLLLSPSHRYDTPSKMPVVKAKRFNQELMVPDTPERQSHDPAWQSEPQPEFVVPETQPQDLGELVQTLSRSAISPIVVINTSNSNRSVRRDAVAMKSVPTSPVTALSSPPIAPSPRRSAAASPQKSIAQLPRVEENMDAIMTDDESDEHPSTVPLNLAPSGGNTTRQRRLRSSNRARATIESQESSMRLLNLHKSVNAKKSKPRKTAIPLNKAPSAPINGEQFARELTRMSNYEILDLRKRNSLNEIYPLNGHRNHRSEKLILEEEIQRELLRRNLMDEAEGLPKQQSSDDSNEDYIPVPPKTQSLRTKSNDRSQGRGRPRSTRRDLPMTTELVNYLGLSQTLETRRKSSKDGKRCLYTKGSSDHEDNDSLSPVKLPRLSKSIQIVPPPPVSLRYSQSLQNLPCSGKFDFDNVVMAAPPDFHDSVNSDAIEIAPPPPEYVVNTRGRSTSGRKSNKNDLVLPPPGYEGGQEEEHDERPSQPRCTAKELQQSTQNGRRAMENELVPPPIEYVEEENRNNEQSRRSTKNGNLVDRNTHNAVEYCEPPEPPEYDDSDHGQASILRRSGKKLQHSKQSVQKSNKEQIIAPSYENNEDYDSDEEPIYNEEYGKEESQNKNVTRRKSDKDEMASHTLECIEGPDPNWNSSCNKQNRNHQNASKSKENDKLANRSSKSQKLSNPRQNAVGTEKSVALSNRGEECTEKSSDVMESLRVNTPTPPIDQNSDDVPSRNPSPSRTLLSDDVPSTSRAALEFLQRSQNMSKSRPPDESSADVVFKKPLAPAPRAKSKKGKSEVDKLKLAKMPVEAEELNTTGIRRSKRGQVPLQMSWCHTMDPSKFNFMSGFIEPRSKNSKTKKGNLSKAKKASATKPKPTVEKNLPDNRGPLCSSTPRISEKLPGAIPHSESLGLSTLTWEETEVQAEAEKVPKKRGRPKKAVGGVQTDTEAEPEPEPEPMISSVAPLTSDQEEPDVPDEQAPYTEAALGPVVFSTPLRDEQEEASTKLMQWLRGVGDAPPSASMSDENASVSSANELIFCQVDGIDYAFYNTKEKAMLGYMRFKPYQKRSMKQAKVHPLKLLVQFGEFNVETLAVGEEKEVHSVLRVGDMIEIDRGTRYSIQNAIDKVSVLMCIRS

By UniProt entry, the sequences of proteins in these tests, tags left out. Where a name states a change or a piece, a line headed by the entry shows the natural chain unless it says otherwise.
UniProt Q9V6Q2, whole entry: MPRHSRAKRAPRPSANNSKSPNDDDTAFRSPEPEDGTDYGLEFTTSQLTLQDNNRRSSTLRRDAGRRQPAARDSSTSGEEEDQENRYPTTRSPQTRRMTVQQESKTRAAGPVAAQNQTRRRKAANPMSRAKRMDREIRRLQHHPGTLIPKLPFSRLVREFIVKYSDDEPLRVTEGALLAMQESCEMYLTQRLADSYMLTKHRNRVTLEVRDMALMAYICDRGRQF

[4] = target: T2, GFP-LacI-CENP-C F1324R (Drosophila melanogaster) (UniProt Q9VHP9); assay: LacO/LacI tethering assay in cells
T2 sequence: T1 sequence with F1324R

[5] = target: T3, His-CENP-C_(1264-1411) (Drosophila melanogaster) (UniProt Q9VHP9); assay: SEC
T3 sequence: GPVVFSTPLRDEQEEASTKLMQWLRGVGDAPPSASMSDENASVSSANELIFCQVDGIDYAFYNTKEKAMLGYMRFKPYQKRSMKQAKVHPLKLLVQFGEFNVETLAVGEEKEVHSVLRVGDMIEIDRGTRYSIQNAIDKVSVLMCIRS

[6] = target: T4, His-CENP-C_(1264-1411 L1357E/M1407E) (Drosophila melanogaster) (UniProt Q9VHP9); assay: SEC
T4 sequence: T3 sequence with L94E, M144E

[7] = target: T5, His-CENP-C_(1264-1411 F1324R) (Drosophila melanogaster) (UniProt Q9VHP9); assay: SEC
T5 sequence: T3 sequence with F61R

With “CAL1-V5 W22A/F29A (from UniProt Q9VEN2 1-979)” the binding [1] was “binds weakly”.
With “CAL1_(841-979) (untagged) (from UniProt Q9VEN2 841-979) (domain or fragment)” the binding [2] was “no binding”.
For CAL1-V5 (from UniProt Q9VEN2 1-979), the binding [1] was “binds”, the binding [3] was “binds” and the binding [4] was “binds”.
“CAL1-V5 W22R/F29R (from UniProt Q9VEN2 1-979)” was tested, and the binding [1] was “no binding”.
In the case of “His-SUMO-CAL1_(841-979 I900R/K907A/Y908A) (from UniProt Q9VEN2 841-979) (domain or fragment)”, the binding [5] was “no binding”.
For “CAL1-V5 I900R/K907A/Y908A (from UniProt Q9VEN2 1-979)”, the binding [3] was “binds”.
For “His-SUMO-CAL1_(841-979) (from UniProt Q9VEN2 841-979) (domain or fragment)”, the binding [6] was “no binding” and the binding [7] was “no binding”.
